Percent effect of library compounds

From ChEMBL document CHEMBL3988442, “University of Dundee, Small-Polar-MMV Screening Library” (2021).

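Whole-cell growth test on Mycobacterium tuberculosis, read after 3 days in glucose-containing 7H9 medium; the read-out is not stated. Concentration: 50 µM. Higher reads as more growth inhibition (inferred: compounds with an IC50 in retests scored well above the rest). Of about 69,000 compounds tested this way, about 760 (1.1%) reached 50% or more in at least one test.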

Values are the deposited “Percent Effect”, in %.
The record does not define 0% and 100%; most values in the screen are far below 50% and negative numbers occur (in some assays of this library far below -100).
This is an unselected part of the compounds tested.
Two or more numbers in one place are separate tests of the same structure; such repeats can differ widely.

* CN1CCC2(CCN(S(=O)(=O)c3ccc(-c4cnco4)s3)CC2)C1 : 43.01%
* CNC(=O)CN1CCc2c(CNc3nccs3)n[nH]c2C1.O=C(O)C(F)(F)F : -16.05%
* CN1CCCN(C(=O)NCCNc2cnccn2)CC1 : 8.822%
* CC(=O)N1CCN(C(=O)CCOc2ccc(C(C)C)cc2)CC1 : 0.6798%
* O=C(c1ccncc1)N1CCC2(COc3ncccc3S(=O)(=O)N2)C1 (centres unmarked) : 21.92%
* [H][C@]12C[C@H](NC(=O)C(C)C)[C@@]1([H])CN(S(=O)(=O)c1ccc(C)cc1)C2 : 14.89%
* COc1ccc(CNC2CCN(CCc3ccncc3)CC2)cc1O : 10.32%
* COc1ccc(CC(=O)NC2CCc3nc(C)cn3C2)cc1 (centres unmarked) : -3.506%
* COCCN(C)C1COC2(CCN(Cc3ccccn3)CC2)C1.O=C(O)C(F)(F)F.O=C(O)C(F)(F)F (centres unmarked) : -22.24%
* COCc1cc(C[C@@H]2CC[C@H](O)[C@@H](CN(CC(C)C)CC(C)C)O2)no1 : -5.936% and -3.477%
* CN(C)C(=O)Cc1ccc(-c2cccc3c2CCNC3)cc1 : -22.92%
* Cc1cc(C)n(CCN2CCOC(CNc3cccnn3)C2)n1 (centres unmarked) : -3.273%
* O=C(C1CCCCO1)N1CCc2ncnc(NCCO)c2CC1 (centres unmarked) : 2.5%
* O=S1(=O)[C@@H](c2ccccc2)[C@H](CO)CN1C1CC1 : 21.55%
* Cc1noc(C)c1CNS(=O)(=O)N(C)Cc1ccc(Cl)cc1 : -2.326%
* O=C(Nc1ccccc1CCO)c1cccc(CN2CC[C@H](O)C2)c1 : 25.21% and 0.3173%
* CC(C)n1nc2c(cc1=O)CN(Cc1nc(-c3ccoc3)no1)CC2 : -27.87%
* CCN1CC(C(=O)NCc2ccccc2-n2cccn2)CC1=O (centres unmarked) : 11.23%
* Cc1ccccc1N1CCN(C(=O)Cc2ccc3c(c2)OCO3)CC1=O : -30.59% and 10.47%
* Cc1cc(C2CCC2)nc(N2CCC3(CCNC(=O)CC3)CC2)n1 : 27.57%
* O=C(O)C(F)(F)F.O=C(O)C(F)(F)F.[H][C@@]12CCN(Cc3ccccn3)C[C@]1(C(=O)N1CCCO1)CCO2 : -26.53%
* CC(C(=O)NC1CC1)S(=O)(=O)c1cc2c(cc1Cl)OCCO2 (centres unmarked) : -7.997%
* COCCN(Cc1noc(-c2ccc(OC)cc2)n1)C1CC1 : 23.45%
* CC(C)(C)c1cc(=O)[nH]c(-c2ccccc2CN2CCC[C@@H](O)C2)n1 : 7.576%
* Oc1cccc(CNCCC2CCCO2)c1 (centres unmarked) : -3.262%
* CC(C)c1nc2n(n1)CC(NCC(=O)NCCC1=CCCCC1)CC2 (centres unmarked) : 21.26%
* N#Cc1cccnc1OC1CCN(C(=O)c2cc(C3CC3)on2)CC1 : 18.75% and 21.9%
* Cc1cc(CN2CCN(C(=O)NCc3nc(C)cs3)CC2)on1 : -19.61%
* COc1ccc(NC(=O)NCC(C)N2CCc3ccccc32)cc1 (centres unmarked) : 4.468%
* O=C(c1c[nH]c(=O)[nH]1)N1CCCC2(CCC(=O)N(C3CCCC3)C2)C1 (centres unmarked) : -16.21%
* COc1cc2c(cc1CCC(=O)O)CCC2 : 1.251%
* Cc1ccc2c(c1)cc(CN1CC[C@](C)(O)[C@H](C)C1)n2C : -9.307%
* Cc1c(Br)cccc1NC(=O)N(C)CCO : -5.059% and 6.81%
* Cc1cc(NC(=O)C(c2cccc(F)c2)N2CCOCC2)sn1 (centres unmarked) : 1.403%
* CCN(CC)C(=O)c1cc(C2CCCN2C)ccn1.O=CO (centres unmarked) : 16.67%
* OC(CN1CCOCC1)c1ccc(OC(F)(F)F)cc1 (centres unmarked) : -4.222%
* CN1CCN(Cc2cnc3n2CCN(C(=O)c2cnccn2)C3)CC1 : 40.95%
* c1cnn(CC2CCCN2Cc2nc(C3CC3)no2)c1 (centres unmarked) : 2.102%
* CN1CCc2nc3c(c(N)c2C1)CCCN3C : 17.23%
* Cc1cnn(CC2CCCN2C(=O)c2cccc(S(C)(=O)=O)c2)c1 (centres unmarked) : 1.277% and -7.542%
* c1ccc(-c2noc(CN3CCCC(Cn4cncn4)C3)n2)nc1 (centres unmarked) : -9.045%

Once more, the final 3:

compound	percent effect
CN1CCc2nc3c(c(N)c2C1)CCCN3C	17.23
Cc1cnn(CC2CCCN2C(=O)c2cccc(S(C)(=O)=O)c2)c1 (centres unmarked)	1.277 and -7.542
c1ccc(-c2noc(CN3CCCC(Cn4cncn4)C3)n2)nc1 (centres unmarked)	-9.045